PubChem BioAssay AID1259424 – University of Nebraska Medical Center, 2018
Assay: 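Find knockdowns that reproduce the expression shifts seen after KSR1 loss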 (primary screen). Cells: human HCT116 colon cancer cells. Reagents: siRNA pool against human genes, 50 nM. Measurement: 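Log2 levels of six mRNAs (branched-DNA multiplex), adjusted by two reference genes and the non-targeting median, then scored against the average KSR1 knockdown pattern as Pearson r and euclidean distance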. Reading the numbers: mean correlation with KSR1 profile: higher = expression change more like KSR1 knockdown.
In all, the deposit lists about 14,000 reagents; shown is an unselected part. 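Higher correlation or smaller distance means closer resemblance to KSR1 loss; control wells, including KSR1 knockdowns, recur on many plates.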 Not all columns of the deposit are shown. Not given: the time to read-out.

The opening 5 records, to show the layout:
| gene symbol | mean correlation with KSR1 profile |
| --- | --- |
| ARHGEF17 | 0.203 |
| REX1BD | 0.44 |
| TCF19 | 0.825 |
| CER1 | -0.238 |
| PCDHB6 | 0.696 |

The listing, repeating the preview:
| gene symbol | mean correlation with KSR1 profile |
| --- | --- |
| ARHGEF17 | 0.203 |
| REX1BD | 0.44 |
| TCF19 | 0.825 |
| CER1 | -0.238 |
| PCDHB6 | 0.696 |
| PRDM16 | 0.505 |
| CFI | 0.188 |
| PRDM15 | 0.16 |
| GLYAT | 0.0112 |
| ZBTB17 | 0.485 |
| FOLR3 | 0.501 |
| SEC31A | -0.226 |
| FNDC8 | -0.522 |
| PML | 0.176 |
| FFAR2 | 0.495 |
| PCDHGA8 | 0.265 |
| GPRASP1 | -0.192 |
| GGNBP2 | -0.263 |
| ERP29 | -0.79 |
| NOC2L | -0.659 |
| PHF1 | 0.585 |
| ID4 | 0.226 |
| SLC25A17 | 0.375 |
| BCL2L2 | -0.313 |
| LRCH4 | 0.216 |
| CHST11 | -0.309 |
| GSAP | 0.413 |
| RBM23 | -0.0635 |
| VDAC3 | 0.0647 |
| P2RY10 | 0.66 |
| MAGEB4 | -0.713 |
| ASPH | 0.0657 |
| CRYGC | 0.426 |
| PYGL | -0.617 |
| ALOX15B | 0.512 |
| THAP2 | 0.852 |
| METTL13 | 0.314 |
| CYB5A | 0.229 |
| DUSP21 | 0.116 |
| NELFE | -0.0608 |
| SLC22A5 | -0.341 |
| PLXND1 | 0.225 |
| PRCP | 0.236 |
| PYROXD2 | 0.186 |
| CDKN2D | 0.299 |
| PARP2 | -0.404 |
| DDX31 | -0.495 |
| MT4 | 0.883 |
| ZC2HC1A | -0.121 |
| LRRC14 | -0.787 |
